# From the supplement of paper PMC3334620
# Whole data set: some 33,000 sequences, median “E-score (-0.5 to 0.5)” near -0.0059, cut for the highest 2% near 0.26. The list shows a part of the results.
# Target: T1, Cin5 (UniProt P40917)
# T1 sequence: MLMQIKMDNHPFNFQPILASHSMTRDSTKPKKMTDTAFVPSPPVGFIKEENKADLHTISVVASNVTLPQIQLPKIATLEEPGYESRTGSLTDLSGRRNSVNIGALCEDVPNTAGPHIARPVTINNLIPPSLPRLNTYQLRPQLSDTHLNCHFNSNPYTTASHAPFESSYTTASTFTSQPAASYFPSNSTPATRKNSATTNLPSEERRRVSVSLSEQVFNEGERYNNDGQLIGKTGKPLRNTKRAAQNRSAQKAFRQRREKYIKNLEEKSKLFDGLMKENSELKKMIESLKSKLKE
# Assay: PBM E-score (8-mer binding enrichment) (E-score (-0.5 to 0.5)); higher = stronger / more preferred TF binding
# Settings: protein concentration: 100 nM; construct: GST-full length
# How it was run: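 E-scores (a modified Wilcoxon-Mann-Whitney statistic) were assigned by the Universal PBM Analysis Suite to every ungapped eight-base word pooled with its reverse complement. The input came from universal all-10-mer Agilent arrays made double-stranded by primer extension and probed with GST-tagged yeast transcription factors at about 100-200 nM. Fluorescent anti-GST detected bound protein, and masliner normalised the scans.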
row,Sequence,PBM E-score
1,AAGTTAGG,-0.0568
2,AGTGTCAG,0.0559
3,ACTCCATC,0.144
4,ATTAACCG,0.158
5,CAGTACTG,-0.141
6,ATGGATGC,0.0484
7,GACTCTAC,-0.183
8,TACTGGAA,0.0953
9,GGAGGGCA,-0.241
10,CGGTCTAG,-0.0383
11,AAAATACG,0.0862
12,CAATTTCA,0.0124
13,CACAGCGC,0.073
14,GTCCTAAC,-0.11
15,CAATCGTA,0.121
16,ACTAGGGC,-0.106
17,AAGGGGGG,-0.48
18,CGCCGCCG,-0.0326
19,ATCCAAAG,0.126
20,GGGTAACA,0.00503
21,CACGCGTC,0.145
22,ATATAATA,0.303

# Fetched one by one from above (3):
row,Sequence,PBM E-score
3,ACTCCATC,0.144
1,AAGTTAGG,-0.0568
6,ATGGATGC,0.0484

# Continued.

row,Sequence,PBM E-score
1,CGCCATGC,-0.086
2,CACGGGGC,-0.17
3,CGCCGTGA,-0.0112
4,AGAGGTCA,-0.00668
5,GGGGGACA,-0.178
6,CGTGGAAG,0.129
7,CGCCTTAA,0.0262
8,CATTCACG,-0.098
9,GGTGTGGA,0.0929
10,GGACCTAA,-0.0416
11,ATCACTTC,0.196
12,AGACCCTC,-0.257
13,CCCTTAAC,-0.173
14,CACGGGCA,-0.189
15,CAGTAACC,-0.021
16,CTTCTGGC,-0.0974
17,AACTTTGT,0.13
18,GGTTATCA,0.0603
19,ATTCCCCA,0.202
20,CTTTTGTA,0.205
21,AGCGAGAC,-0.0151
22,CTCATGCC,-0.0927

row,Sequence,PBM E-score
1,ACGACGGG,-0.125
2,CCTGGACA,-0.24
3,GTGGTGAA,-0.0496
4,TGCAACCA,-0.0636
5,CCTAGTAC,-0.00963
6,CTGCACCA,-0.126
7,CCAGGCAA,-0.0365
8,CGTTCAAA,-0.0884
9,AGTTCCTG,-0.0496
10,CATTGCGA,0.0649
11,TGGCTCAA,-0.142
12,AATCTGAT,0.141
13,CCTCTTAC,0.0863
14,GGGTTAAC,-0.0533
15,AGCAAACA,0.227
16,CCAGGTCA,-0.21
17,CAGCGTCA,-0.26
18,GGATTCCC,-0.2
19,CATTGAGA,0.0475
20,ACTACCTA,0.096
21,CCCTAGCA,-0.0782
22,GCTCTGCC,-0.298

row,Sequence,PBM E-score
1,GTGTAGAA,-0.027
2,CTATAGAC,-0.149
3,CGACGAAG,-0.0192
4,AGCTTGGG,0.0734
5,GGTTTGCA,0.0992
6,AATTACCC,0.155
7,CCAAAGCA,0.0728
8,CCAGAACC,-0.0649
9,CAGAATGA,0.0817
10,GAAATGAA,0.275
11,ATCCTTGC,-0.0994
12,AACCATTG,-0.0545
13,AACGGGAC,-0.151
14,TGTTCTAA,0.174
15,CACCCCGA,-0.0528
16,GCACGTCC,-0.061
17,CGCGCGCA,0.227
18,ATCCTCGC,0.0113
19,ATAAGCAG,0.33
20,ACCCGGGC,-0.139
